{"source": "the supplement of paper PMC8728848", "binders": {"B1": {"name": "Agalectin (Anopheles gambiae) (protein)", "chain": "MSNRPFTAKFPRYPENGDEVFIRGKLKDDAKSFSVNFCLPRPAQVAEHQTPPYIALHFKTIYDERDDTSRVVLNWKNLQWQQEEVLDNYWHVDRSQTFRVVFRLHEDCIKVFVNSVDHPPDYQFPVQLPLDQIESIELWDDVEHVEEISFRYDNGNSY"}}, "assay_in_all_cases": "glycan array binding signal (z-score within array); higher = stronger binding", "conditions_in_all_cases": "glycan notation: IUPAC condensed, linker removed", "key": {"[1]": {"target": "Fuc(a1-2)Gal(b1-4)GlcNAc(b1-3)Gal(b1-4)GlcNAc(b1-3)Gal(b1-4)GlcNAc", "procedure,_shortened": "(§1)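 Negative Z-scores can be read as non-binding. The Z-score is calculated within each array and then averaged across arrays of one protein sequence at different concentrations or buffers and across linkers. Arrays, 3228 in all, were curated from the Consortium for Functional Glycomics database and kept only where the protein sequence was available.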"}, "[2]": {"target": "Fuc(a1-2)Gal(b1-4)GlcNAc(b1-3)GalNAc", "procedure,_shortened": "as §1"}, "[3]": {"target": "Fuc(a1-2)Gal(b1-4)GlcNAc(b1-3)[Fuc(a1-2)Gal(b1-4)GlcNAc(b1-6)]GalNAc", "procedure,_shortened": "as §1"}, "[4]": {"target": "Fuc(a1-2)Gal(b1-4)GlcNAc(b1-3)[Fuc(a1-3)[Gal(b1-4)]GlcNAc(b1-6)]Gal(b1-4)Glc", "procedure,_shortened": "as §1"}, "[5]": {"target": "Fuc(a1-2)Gal(b1-4)GlcNAc(b1-6)GalNAc", "procedure,_shortened": "as §1"}, "[6]": {"target": "Fuc(a1-2)Gal(b1-4)GlcNAc6S", "procedure,_shortened": "as §1"}, "[7]": {"target": "Fuc(a1-2)Gal(b1-4)[Fuc(a1-3)]GlcNAc", "procedure,_shortened": "as §1"}, "[8]": {"target": "Fuc(a1-2)Gal(b1-4)[Fuc(a1-3)]GlcNAc(b1-2)Man(a1-3)[Fuc(a1-2)Gal(b1-4)[Fuc(a1-3)]GlcNAc(b1-2)Man(a1-6)]Man(b1-4)GlcNAc(b1-4)[Fuc(a1-6)]GlcNAc", "procedure,_shortened": "as §1"}, "[9]": {"target": "Fuc(a1-2)Gal(b1-4)[Fuc(a1-3)]GlcNAc(b1-2)[Fuc(a1-2)Gal(b1-4)[Fuc(a1-3)]GlcNAc(b1-4)]Man(a1-3)[Fuc(a1-2)Gal(b1-4)[Fuc(a1-3)]GlcNAc(b1-2)Man(a1-6)]Man(b1-4)GlcNAc(b1-4)GlcNAc", "procedure,_shortened": "as §1"}, "[10]": {"target": "Fuc(a1-2)Gal(b1-4)[Fuc(a1-3)]GlcNAc(b1-3)Gal(b1-4)[Fuc(a1-3)]GlcNAc", "procedure,_shortened": "as §1"}, "[11]": {"target": "Fuc(a1-2)Gal(b1-4)[Fuc(a1-3)]GlcNAc(b1-3)Gal(b1-4)[Fuc(a1-3)]GlcNAc(b1-3)Gal(b1-4)[Fuc(a1-3)]GlcNAc", "procedure,_shortened": "as §1"}, "[12]": {"target": "Fuc(a1-2)Gal(b1-4)[Fuc(a1-3)]GlcNAc(b1-3)GalNAc", "procedure,_shortened": "as §1"}, "[13]": {"target": "Fuc(a1-2)Gal(b1-4)[Fuc(a1-3)]GlcNAc(b1-3)[Neu5Ac(a2-6)Gal(b1-4)GlcNAc(b1-6)]Gal(b1-4)Glc", "procedure,_shortened": "as §1"}, "[14]": {"target": "Fuc(a1-2)Gal3S(b1-4)GlcNAc", "procedure,_shortened": "as §1"}, "[15]": {"target": "Fuc(a1-2)Gal6S(b1-3)GlcNAc", "procedure,_shortened": "as §1"}, "[16]": {"target": "Fuc(a1-2)Gal6S(b1-3)GlcNAc6S", "procedure,_shortened": "as §1"}, "Fuc(a1-2)Gal6S(b1-4)Glc": {"target": "Fuc(a1-2)Gal6S(b1-4)Glc", "procedure,_shortened": "as §1"}, "[17]": {"target": "Fuc(a1-2)Gal6S(b1-4)Glc6S", "procedure,_shortened": "as §1"}, "Fuc(a1-2)[Gal(a1-3)]Gal": {"target": "Fuc(a1-2)[Gal(a1-3)]Gal", "procedure,_shortened": "as §1"}, "[18]": {"target": "Fuc(a1-2)[Gal(a1-3)]Gal(b1-3)GalNAc", "procedure,_shortened": "as §1"}, "[19]": {"target": "Fuc(a1-2)[Gal(a1-3)]Gal(b1-3)GalNAc(b1-3)Gal(a1-4)Gal(b1-4)Glc", "procedure,_shortened": "as §1"}, "[20]": {"target": "Fuc(a1-2)[Gal(a1-3)]Gal(b1-3)GlcNAc", "procedure,_shortened": "as §1"}, "[21]": {"target": "Fuc(a1-2)[Gal(a1-3)]Gal(b1-3)GlcNAc(b1-2)Man(a1-3)[Fuc(a1-2)[Gal(a1-3)]Gal(b1-3)GlcNAc(b1-2)Man(a1-6)]Man(b1-4)GlcNAc(b1-4)GlcNAc", "procedure,_shortened": "as §1"}, "[22]": {"target": "Fuc(a1-2)[Gal(a1-3)]Gal(b1-3)GlcNAc(b1-2)Man(a1-3)[Fuc(a1-2)[Gal(a1-3)]Gal(b1-3)GlcNAc(b1-2)Man(a1-6)]Man(b1-4)GlcNAc(b1-4)[Fuc(a1-6)]GlcNAc", "procedure,_shortened": "as §1"}, "[23]": {"target": "Fuc(a1-2)[Gal(a1-3)]Gal(b1-3)GlcNAc(b1-3)GalNAc", "procedure,_shortened": "as §1"}, "[24]": {"target": "Fuc(a1-2)[Gal(a1-3)]Gal(b1-3)GlcNAc(b1-6)GalNAc", "procedure,_shortened": "as §1"}, "[25]": {"target": "Fuc(a1-2)[Gal(a1-3)]Gal(b1-4)Glc", "procedure,_shortened": "as §1"}, "[26]": {"target": "Fuc(a1-2)[Gal(a1-3)]Gal(b1-4)GlcNAc", "procedure,_shortened": "as §1"}, "[27]": {"target": "Fuc(a1-2)[Gal(a1-3)]Gal(b1-4)GlcNAc(b1-2)Man", "procedure,_shortened": "as §1"}, "[28]": {"target": "Fuc(a1-2)[Gal(a1-3)]Gal(b1-4)GlcNAc(b1-2)Man(a1-3)[Fuc(a1-2)[Gal(a1-3)]Gal(b1-4)GlcNAc(b1-2)Man(a1-6)]Man(b1-4)GlcNAc(b1-4)GlcNAc", "procedure,_shortened": "as §1"}, "[29]": {"target": "Fuc(a1-2)[Gal(a1-3)]Gal(b1-4)GlcNAc(b1-2)Man(a1-3)[Fuc(a1-2)[Gal(a1-3)]Gal(b1-4)GlcNAc(b1-2)Man(a1-6)]Man(b1-4)GlcNAc(b1-4)[Fuc(a1-6)]GlcNAc", "procedure,_shortened": "as §1"}, "[30]": {"target": "Fuc(a1-2)[Gal(a1-3)]Gal(b1-4)GlcNAc(b1-3)GalNAc", "procedure,_shortened": "as §1"}, "[31]": {"target": "Fuc(a1-2)[Gal(a1-3)]Gal(b1-4)GlcNAc(b1-3)[Fuc(a1-2)[Gal(a1-3)]Gal(b1-4)GlcNAc(b1-6)]GalNAc", "procedure,_shortened": "as §1"}, "[32]": {"target": "Fuc(a1-2)[Gal(a1-3)]Gal(b1-4)GlcNAc(b1-6)GalNAc", "procedure,_shortened": "as §1"}, "[33]": {"target": "Fuc(a1-2)[Gal(a1-3)]Gal(b1-4)[Fuc(a1-3)]Glc", "procedure,_shortened": "as §1"}, "[34]": {"target": "Fuc(a1-2)[Gal(a1-3)]Gal(b1-4)[Fuc(a1-3)]GlcNAc", "procedure,_shortened": "as §1"}, "[35]": {"target": "Fuc(a1-2)[Gal(a1-3)]Gal(b1-4)[Fuc(a1-3)]GlcNAc(b1-3)GalNAc", "procedure,_shortened": "as §1"}, "[36]": {"target": "Fuc(a1-2)[Gal(a1-4)]Gal(b1-4)GlcNAc", "procedure,_shortened": "as §1"}, "[37]": {"target": "Fuc(a1-2)[GalNAc(a1-3)]Gal", "procedure,_shortened": "as §1"}, "[38]": {"target": "Fuc(a1-2)[GalNAc(a1-3)]Gal(b1-3)GalNAc(a1-3)[Fuc(a1-2)]Gal(b1-4)GlcNAc", "procedure,_shortened": "as §1"}, "[39]": {"target": "Fuc(a1-2)[GalNAc(a1-3)]Gal(b1-3)GalNAc(b1-3)Gal(a1-4)Gal(b1-4)Glc", "procedure,_shortened": "as §1"}, "[40]": {"target": "Fuc(a1-2)[GalNAc(a1-3)]Gal(b1-3)GlcNAc", "procedure,_shortened": "as §1"}, "[41]": {"target": "Fuc(a1-2)[GalNAc(a1-3)]Gal(b1-3)GlcNAc(b1-2)Man(a1-3)[Fuc(a1-2)[GalNAc(a1-3)]Gal(b1-3)GlcNAc(b1-2)Man(a1-6)]Man(b1-4)GlcNAc(b1-4)GlcNAc", "procedure,_shortened": "as §1"}, "[42]": {"target": "Fuc(a1-2)[GalNAc(a1-3)]Gal(b1-3)GlcNAc(b1-2)Man(a1-3)[Fuc(a1-2)[GalNAc(a1-3)]Gal(b1-3)GlcNAc(b1-2)Man(a1-6)]Man(b1-4)GlcNAc(b1-4)[Fuc(a1-6)]GlcNAc", "procedure,_shortened": "as §1"}, "[43]": {"target": "Fuc(a1-2)[GalNAc(a1-3)]Gal(b1-3)GlcNAc(b1-3)GalNAc", "procedure,_shortened": "as §1"}}, "note": "The other results are listed elsewhere or left out.", "data": [{"binder": "B1", "values": [{"measurement": "glycan array binding signal (z-score)", "setting": "[1]", "result": -0.467}, {"measurement": "glycan array binding signal (z-score)", "setting": "[2]", "result": -0.305}, {"measurement": "glycan array binding signal (z-score)", "setting": "[3]", "result": -0.321}, {"measurement": "glycan array binding signal (z-score)", "setting": "[4]", "result": -0.633}, {"measurement": "glycan array binding signal (z-score)", "setting": "[5]", "result": 0.946}, {"measurement": "glycan array binding signal (z-score)", "setting": "[6]", "result": -0.769}, {"measurement": "glycan array binding signal (z-score)", "setting": "[7]", "result": -0.803}, {"measurement": "glycan array binding signal (z-score)", "setting": "[8]", "result": 2.19}, {"measurement": "glycan array binding signal (z-score)", "setting": "[9]", "result": 1.22}, {"measurement": "glycan array binding signal (z-score)", "setting": "[10]", "result": -0.345}, {"measurement": "glycan array binding signal (z-score)", "setting": "[11]", "result": -0.318}, {"measurement": "glycan array binding signal (z-score)", "setting": "[12]", "result": 0.822}, {"measurement": "glycan array binding signal (z-score)", "setting": "[13]", "result": -0.54}, {"measurement": "glycan array binding signal (z-score)", "setting": "[14]", "result": -0.976}, {"measurement": "glycan array binding signal (z-score)", "setting": "[15]", "result": -0.827}, {"measurement": "glycan array binding signal (z-score)", "setting": "[16]", "result": -0.208}, {"measurement": "glycan array binding signal (z-score)", "setting": "Fuc(a1-2)Gal6S(b1-4)Glc", "result": 0.173}, {"measurement": "glycan array binding signal (z-score)", "setting": "[17]", "result": -0.237}, {"measurement": "glycan array binding signal (z-score)", "setting": "Fuc(a1-2)[Gal(a1-3)]Gal", "result": -0.443}, {"measurement": "glycan array binding signal (z-score)", "setting": "[18]", "result": 0.376}, {"measurement": "glycan array binding signal (z-score)", "setting": "[19]", "result": -1.86}, {"measurement": "glycan array binding signal (z-score)", "setting": "[20]", "result": -0.323}, {"measurement": "glycan array binding signal (z-score)", "setting": "[21]", "result": 0.388}, {"measurement": "glycan array binding signal (z-score)", "setting": "[22]", "result": 0.006}, {"measurement": "glycan array binding signal (z-score)", "setting": "[23]", "result": 0.022}, {"measurement": "glycan array binding signal (z-score)", "setting": "[24]", "result": -0.263}, {"measurement": "glycan array binding signal (z-score)", "setting": "[25]", "result": 0.207}, {"measurement": "glycan array binding signal (z-score)", "setting": "[26]", "result": 0.173}, {"measurement": "glycan array binding signal (z-score)", "setting": "[27]", "result": -1.1}, {"measurement": "glycan array binding signal (z-score)", "setting": "[28]", "result": 0.357}, {"measurement": "glycan array binding signal (z-score)", "setting": "[29]", "result": -0.719}, {"measurement": "glycan array binding signal (z-score)", "setting": "[30]", "result": -0.788}, {"measurement": "glycan array binding signal (z-score)", "setting": "[31]", "result": 0.066}, {"measurement": "glycan array binding signal (z-score)", "setting": "[32]", "result": -0.234}, {"measurement": "glycan array binding signal (z-score)", "setting": "[33]", "result": -0.255}, {"measurement": "glycan array binding signal (z-score)", "setting": "[34]", "result": 0.237}, {"measurement": "glycan array binding signal (z-score)", "setting": "[35]", "result": -0.734}, {"measurement": "glycan array binding signal (z-score)", "setting": "[36]", "result": -0.607}, {"measurement": "glycan array binding signal (z-score)", "setting": "[37]", "result": 0.25}, {"measurement": "glycan array binding signal (z-score)", "setting": "[38]", "result": -0.308}, {"measurement": "glycan array binding signal (z-score)", "setting": "[39]", "result": 0.563}, {"measurement": "glycan array binding signal (z-score)", "setting": "[40]", "result": 0.471}, {"measurement": "glycan array binding signal (z-score)", "setting": "[41]", "result": -0.194}, {"measurement": "glycan array binding signal (z-score)", "setting": "[42]", "result": -0.158}, {"measurement": "glycan array binding signal (z-score)", "setting": "[43]", "result": -0.825}]}]}
